These are yes or no findings as the source states them, for the method shown. In cells and extracts the contact can be indirect. Some binding calls cover weakened binding; strength is not graded here.
Target: T1, Tuftelin (TUFT1) (human (endogenous in MDA-MB-231)) (UniProt Q9NNX1)
T1 sequence: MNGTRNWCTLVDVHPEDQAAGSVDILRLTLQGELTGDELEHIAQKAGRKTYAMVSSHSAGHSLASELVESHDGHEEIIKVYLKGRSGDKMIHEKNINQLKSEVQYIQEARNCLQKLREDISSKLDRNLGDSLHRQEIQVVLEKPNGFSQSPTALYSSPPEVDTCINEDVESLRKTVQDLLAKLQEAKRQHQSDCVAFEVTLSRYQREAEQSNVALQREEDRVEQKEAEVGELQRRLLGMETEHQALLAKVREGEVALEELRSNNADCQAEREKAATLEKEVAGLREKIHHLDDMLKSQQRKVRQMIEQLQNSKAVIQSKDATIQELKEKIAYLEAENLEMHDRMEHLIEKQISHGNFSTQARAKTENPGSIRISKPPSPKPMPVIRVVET
Experiment: co-IP; endogenous proteins in MDA-MB-231 lysate (20 mM Tris-HCl pH 7.4, 150 mM NaCl, 1% Triton X-100); antibody 2 h at 4 °C, protein G Plus-agarose 2 h, five washes with lysis buffer, immunoblot

Protein sequences, listed by entry. Tags and fused reporters are not part of them.
UniProt P27986: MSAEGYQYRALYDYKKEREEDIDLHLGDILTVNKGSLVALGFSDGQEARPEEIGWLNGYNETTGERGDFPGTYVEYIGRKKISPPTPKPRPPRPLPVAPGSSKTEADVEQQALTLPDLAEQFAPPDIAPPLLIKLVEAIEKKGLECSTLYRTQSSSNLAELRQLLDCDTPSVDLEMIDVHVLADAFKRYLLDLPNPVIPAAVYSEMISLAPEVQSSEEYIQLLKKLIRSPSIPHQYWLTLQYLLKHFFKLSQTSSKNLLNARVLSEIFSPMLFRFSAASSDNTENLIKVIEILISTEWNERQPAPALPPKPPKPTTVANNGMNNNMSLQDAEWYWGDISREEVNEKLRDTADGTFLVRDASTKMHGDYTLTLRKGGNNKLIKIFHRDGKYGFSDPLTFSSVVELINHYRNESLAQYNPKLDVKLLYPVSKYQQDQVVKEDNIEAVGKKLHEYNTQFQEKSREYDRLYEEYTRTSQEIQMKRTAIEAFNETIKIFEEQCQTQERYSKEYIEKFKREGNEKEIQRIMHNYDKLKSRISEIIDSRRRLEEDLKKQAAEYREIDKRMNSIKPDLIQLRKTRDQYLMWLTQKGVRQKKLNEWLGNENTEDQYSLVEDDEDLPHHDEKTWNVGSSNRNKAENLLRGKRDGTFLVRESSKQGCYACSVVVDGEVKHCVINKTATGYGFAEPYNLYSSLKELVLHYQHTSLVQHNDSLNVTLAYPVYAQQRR

In the case of p85α (from UniProt P27986 1-724), the binding is reported as “binds”.
